Results taken from patent US20200038392A1, “TOPICAL COMPOSITIONS AND METHODS OF PREPARATION AND USE” (Aldeyra Therapeutics, Inc., priority 2018, published 2020).
At least one compound was matched to its structure with a doubt left.

What was measured:
[1] = Chemical stability of ADX-102 in the potential receiver fluid systems; format: physicochemical; conditions: 2-8° C. and 32° C. for up to 6 days
[2] = test system: ichthyosis associated with SLS; experiment: Phase 2 clinical trial in SLS patients; format: in vivo, human; conditions: SLS patients treated over ~3% BSA with ADX-102 1% for 8 weeks
[3] = ADX-102 oxidation investigation: peroxide spiking (H2O2, NMP) and high temperature stress in PEG 400; format: physicochemical
Method: A preliminary study was performed in an attempt to degrade ADX-102 to a suitable level such that oxidation products observed during long-term stability could be detected. To this end, an ADX-102 in PEG 400 stock solution (0.1% w/w) was prepared and degraded with hydrogen peroxide (H2O2) and N-methylpyrrolidone (NMP) at 0.1 and 1.0% w/w concentrations, respectively. Additionally, the stocks were stressed at 40 and 70° C. to increase degradation. […] Sufficient degradation of ADX-102 was observed following spiking with […] H2O2 and storage at 70° C. for 48 h condition and was therefore considered suitable for use in antioxidant/stabilizer selection experiments described below.

## CC(C)(O)c1nc2ccc(Cl)cc2cc1N [ADX-102, 2-[3-amino-6-chloro-quinolin-2-yl]-propan-2-ol]
[1]; 2% Brij 98 in ethanol and water (50:50 v/v)
  Recovery of the drug from t=0: 76-92%
[1]; ethanol and water (50:50 v/v) and 20% PEG 400 in ethanol and water (50:50 v/v)
  Recovery of the drug from t=0: 92-106%
[2]
  Efficacy on ichthyosis associated with SLS: effective in treating the ichthyosis associated with SLS
[3]; 0.1% H2O2 spiking, T = 24 h, 40° C.
  Percentage recovery of ADX-102: 90.10%
[3]; 0.1% H2O2 spiking, T = 24 h, 70° C.
  Percentage recovery of ADX-102: 86.52%
[3]; 0.1% H2O2 spiking, T = 48 h, 40° C.
  Percentage recovery of ADX-102: 73.23%
[3]; 0.1% H2O2 spiking, T = 48 h, 70° C.
  Percentage recovery of ADX-102: 70.13%
[3]; 0.1% NMP spiking, T = 0
  Percentage recovery of ADX-102: 100.00%
[3]; 0.1% NMP spiking, T = 24 h, 40° C.
  Percentage recovery of ADX-102: 89.79%
[3]; 0.1% NMP spiking, T = 24 h, 70° C.
  Percentage recovery of ADX-102: 86.35%
[3]; 0.1% NMP spiking, T = 48 h, 40° C.
  Percentage recovery of ADX-102: 74.47%
[3]; 0.1% NMP spiking, T = 48 h, 70° C.
  Percentage recovery of ADX-102: 70.64%
[3]; 0.1% w/w ADX-102 in PEG 400, 0.1% H2O2 spiking, T = 0
  Percentage recovery of ADX-102: 100.00%
[3]; 1.0% H2O2 spiking, T = 0
  Percentage recovery of ADX-102: 100.00%
[3]; 1.0% H2O2 spiking, T = 24 h, 40° C.
  Percentage recovery of ADX-102: 88.41%
[3]; 1.0% H2O2 spiking, T = 24 h, 70° C.
  Percentage recovery of ADX-102: 82.92%
[3]; 1.0% H2O2 spiking, T = 48 h, 40° C.
  Percentage recovery of ADX-102: 74.00%
[3]; 1.0% H2O2 spiking, T = 48 h, 70° C.
  Percentage recovery of ADX-102: 66.27%
[3]; 1.0% NMP spiking, T = 0
  Percentage recovery of ADX-102: 100.00%
[3]; 1.0% NMP spiking, T = 24 h, 40° C.
  Percentage recovery of ADX-102: 89.43%
[3]; 1.0% NMP spiking, T = 24 h, 70° C.
  Percentage recovery of ADX-102: 86.02%
[3]; 1.0% NMP spiking, T = 48 h, 40° C.
  Percentage recovery of ADX-102: 72.13%
[3]; 1.0% NMP spiking, T = 48 h, 70° C.
  Percentage recovery of ADX-102: 68.52%
